# According to patent US20130302322A1:
# Amino acid sequences for entries named in this document (tags omitted). A change or cut given only in a name is not applied to a line headed by its entry.
# UniProt P07333: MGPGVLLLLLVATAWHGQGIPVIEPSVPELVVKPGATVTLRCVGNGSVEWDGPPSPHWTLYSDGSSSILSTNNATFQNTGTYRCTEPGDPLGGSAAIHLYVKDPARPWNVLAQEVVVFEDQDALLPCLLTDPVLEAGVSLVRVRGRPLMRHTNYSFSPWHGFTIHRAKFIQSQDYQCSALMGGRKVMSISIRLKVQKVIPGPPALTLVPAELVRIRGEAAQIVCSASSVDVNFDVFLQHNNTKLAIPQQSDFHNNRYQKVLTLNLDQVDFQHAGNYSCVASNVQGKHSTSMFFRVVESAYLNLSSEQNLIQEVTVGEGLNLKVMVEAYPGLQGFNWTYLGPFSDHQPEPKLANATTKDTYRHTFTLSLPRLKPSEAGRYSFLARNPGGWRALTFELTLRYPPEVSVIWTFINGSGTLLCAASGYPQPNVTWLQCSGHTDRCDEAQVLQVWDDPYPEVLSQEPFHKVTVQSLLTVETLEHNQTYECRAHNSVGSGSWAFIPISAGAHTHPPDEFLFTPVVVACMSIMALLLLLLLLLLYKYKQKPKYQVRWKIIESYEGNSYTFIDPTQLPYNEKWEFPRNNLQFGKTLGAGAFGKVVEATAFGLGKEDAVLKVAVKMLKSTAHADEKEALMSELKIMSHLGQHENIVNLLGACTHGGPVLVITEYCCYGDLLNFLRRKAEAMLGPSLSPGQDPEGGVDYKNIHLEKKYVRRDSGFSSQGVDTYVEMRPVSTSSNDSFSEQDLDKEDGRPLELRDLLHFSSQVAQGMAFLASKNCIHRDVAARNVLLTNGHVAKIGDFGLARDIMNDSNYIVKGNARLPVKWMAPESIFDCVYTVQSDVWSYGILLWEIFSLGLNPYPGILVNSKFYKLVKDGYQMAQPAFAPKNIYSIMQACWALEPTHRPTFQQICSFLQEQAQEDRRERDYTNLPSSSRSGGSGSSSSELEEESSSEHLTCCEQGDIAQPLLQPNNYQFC
# These are yes or no findings as the source states them, for the method shown. Some results given as binding are weak or reduced against the parent protein; the word gives no strength.
# B1: huAb7 (antibody, human IgG4 S228P, kappa, V domains shown)
# VH: QVQLVQSGAEVKKPGSSVKVSCKASGYTFSDFNIHWVRQAPGQGLEWMGYINPYTDVTVYNEKFKGRVTITSDKSTSTAYMELSSLRSEDTAVYYCASYFDGTFDYALDYWGQGTLVTVSS
# VL: EIVLTQSPATLSLSPGERATLSCRASESVDNYGLSFMNWYQQKPGQAPRLLIYTASNLESGIPARFSGSGSGTDFTLTISSLEPEDFAVYYCQQSKELPWTFGQGTKVEIKR
# B2: huAb8 (antibody, human IgG4 S228P, kappa, V domains shown)
# VH: QVQLVQSGAEVKKPGSSVKVSCKASGYTFSDFNIHWVRQAPGQGLEWMGYINPYTDVTVYNEKFKGRVTITSDKSTSTAYMELSSLRSEDTAVYYCASYFDGTFDYALDYWGQGTLVTVSS
# VL: EIVLTQSPATLSLSPGERATLSCRASESVDNYGLSFMNWYQQKPGQAPRLLIYTASNLESGIPARFSGSGSRTDFTLTISSLEPEDFAVYYCQQSKELPWTFGQGTKVEIKR
# B3: huAb9 (antibody, human IgG4 S228P, kappa, V domains shown)
# VH: QVQLVQSGAEVKKPGSSVKVSCKASGYTFSDFNIHWVRQAPGQGLEWMGYINPYTDVTVYNEKFKGRVTITSDKSTSTAYMELSSLRSEDTAVYYCASYFDGTFDYALDYWGQGTLVTVSS
# VL: EIVVTQSPATLSLSPGERATLSCRASESVDNYGLSFMNWFQQKPGQAPRLLIYTASNLESGIPARFSGSGSRTDFTLTISSLEPEDFAVYYCQQSKELPWTFGQGTKVEIKR
# B4: huAb10 (antibody, human IgG4 S228P, kappa, V domains shown)
# VH: QVQLVQSGAEVKKPGSSVKVSCKASGYTFSDFNIHWVRQAPGQGLEWIGYINPYTDVTVYNEKFKGRATLTSDKSTSTAYMELSSLRSEDTAVYYCASYFDGTFDYALDYWGQGTLVTVSS
# VL: EIVLTQSPATLSLSPGERATLSCRASESVDNYGLSFMNWYQQKPGQAPRLLIYTASNLESGIPARFSGSGSGTDFTLTISSLEPEDFAVYYCQQSKELPWTFGQGTKVEIKR
# B5: huAb11 (antibody, human IgG4 S228P, kappa, V domains shown)
# VH: QVQLVQSGAEVKKPGSSVKVSCKASGYTFSDFNIHWVRQAPGQGLEWIGYINPYTDVTVYNEKFKGRATLTSDKSTSTAYMELSSLRSEDTAVYYCASYFDGTFDYALDYWGQGTLVTVSS
# VL: EIVLTQSPATLSLSPGERATLSCRASESVDNYGLSFMNWYQQKPGQAPRLLIYTASNLESGIPARFSGSGSRTDFTLTISSLEPEDFAVYYCQQSKELPWTFGQGTKVEIKR
# B6: huAb12 (antibody, human IgG4 S228P, kappa, V domains shown)
# VH: QVQLVQSGAEVKKPGSSVKVSCKASGYTFSDFNIHWVRQAPGQGLEWIGYINPYTDVTVYNEKFKGRATLTSDKSTSTAYMELSSLRSEDTAVYYCASYFDGTFDYALDYWGQGTLVTVSS
# VL: EIVVTQSPATLSLSPGERATLSCRASESVDNYGLSFMNWFQQKPGQAPRLLIYTASNLESGIPARFSGSGSRTDFTLTISSLEPEDFAVYYCQQSKELPWTFGQGTKVEIKR
# B7: huAb13 (antibody, human IgG4 S228P, kappa, V domains shown)
# VH: QVQLVQSGAEVKKPGSSVKVSCKASGYIFTDYNMHWVRQAPGQGLEWMGEINPNNGVVVYNQKFKGRVTITVDKSTSTAYMELSSLRSEDTAVYYCTRALYHSNFGWYFDSWGQGTLVTVSS
# VL: EIVLTQSPATLSLSPGERATLSCKASQSVDYDGDSHMNWYQQKPGQAPRLLIYTASNLESGIPARFSGSGSGTDFTLTISSLEPEDFAVYYCQQGNEDPWTFGQGTKVEIKR
# B8: huAb14 (antibody, human IgG4 S228P, kappa, V domains shown)
# VH: QVQLVQSGAEVKKPGSSVKVSCKASGYIFTDYNMHWVRQAPGQGLEWMGEINPNNGVVVYNQKFKGRVTITVDKSTSTAYMELSSLRSEDTAVYYCTRALYHSNFGWYFDSWGQGTLVTVSS
# VL: DIVLTQSPATLSLSPGERATLSCKASQSVDYDGDSHMNWYQQKPGQAPRLLIYTASNLESGIPARFSGSGSGADFTLTISSLEPEDFAVYYCQQGNEDPWTFGQGTKVEIKR
# B9: huAb15 (antibody, human IgG4 S228P, kappa, V domains shown)
# VH: QVQLVQSGAEVKKPGSSVKVSCKASGYIFTDYNMHWVRQAPGQGLEWMGEINPNNGVVVYNQKFKGTTTLTVDKSTSTAYMELSSLRSEDTAVYYCTRALYHSNFGWYFDSWGQGTLVTVSS
# VL: EIVLTQSPATLSLSPGERATLSCKASQSVDYDGDSHMNWYQQKPGQAPRLLIYTASNLESGIPARFSGSGSGTDFTLTISSLEPEDFAVYYCQQGNEDPWTFGQGTKVEIKR
# B10: huAb16 (antibody, human IgG4 S228P, kappa, V domains shown)
# VH: QVQLVQSGAEVKKPGSSVKVSCKASGYIFTDYNMHWVRQAPGQGLEWMGEINPNNGVVVYNQKFKGTTTLTVDKSTSTAYMELSSLRSEDTAVYYCTRALYHSNFGWYFDSWGQGTLVTVSS
# VL: DIVLTQSPATLSLSPGERATLSCKASQSVDYDGDSHMNWYQQKPGQAPRLLIYTASNLESGIPARFSGSGSGADFTLTISSLEPEDFAVYYCQQGNEDPWTFGQGTKVEIKR
# Molecular target: human CSF1R ECD (human) (UniProt P07333)
# Experiment: binding test on CSF1R ECD; done previously (WO 2011/140249)
row,Binder,binding
1,B1,binds
2,B2,binds
3,B3,binds
4,B4,binds
5,B5,binds
6,B6,binds
7,B7,binds
8,B8,binds
9,B9,binds
10,B10,binds
